In the supplement of paper PMC12067093, “Discovery and optimisation of a covalent ligand for TRIM25 and its application to targeted protein ubiquitination” (Chemical Science, 2025):
The list shows a part of the results.

By UniProt entry, the sequences of proteins in these tests, tags left out. Where a name states a change or a piece, a line headed by the entry shows the natural chain unless it says otherwise.
UniProt O94822: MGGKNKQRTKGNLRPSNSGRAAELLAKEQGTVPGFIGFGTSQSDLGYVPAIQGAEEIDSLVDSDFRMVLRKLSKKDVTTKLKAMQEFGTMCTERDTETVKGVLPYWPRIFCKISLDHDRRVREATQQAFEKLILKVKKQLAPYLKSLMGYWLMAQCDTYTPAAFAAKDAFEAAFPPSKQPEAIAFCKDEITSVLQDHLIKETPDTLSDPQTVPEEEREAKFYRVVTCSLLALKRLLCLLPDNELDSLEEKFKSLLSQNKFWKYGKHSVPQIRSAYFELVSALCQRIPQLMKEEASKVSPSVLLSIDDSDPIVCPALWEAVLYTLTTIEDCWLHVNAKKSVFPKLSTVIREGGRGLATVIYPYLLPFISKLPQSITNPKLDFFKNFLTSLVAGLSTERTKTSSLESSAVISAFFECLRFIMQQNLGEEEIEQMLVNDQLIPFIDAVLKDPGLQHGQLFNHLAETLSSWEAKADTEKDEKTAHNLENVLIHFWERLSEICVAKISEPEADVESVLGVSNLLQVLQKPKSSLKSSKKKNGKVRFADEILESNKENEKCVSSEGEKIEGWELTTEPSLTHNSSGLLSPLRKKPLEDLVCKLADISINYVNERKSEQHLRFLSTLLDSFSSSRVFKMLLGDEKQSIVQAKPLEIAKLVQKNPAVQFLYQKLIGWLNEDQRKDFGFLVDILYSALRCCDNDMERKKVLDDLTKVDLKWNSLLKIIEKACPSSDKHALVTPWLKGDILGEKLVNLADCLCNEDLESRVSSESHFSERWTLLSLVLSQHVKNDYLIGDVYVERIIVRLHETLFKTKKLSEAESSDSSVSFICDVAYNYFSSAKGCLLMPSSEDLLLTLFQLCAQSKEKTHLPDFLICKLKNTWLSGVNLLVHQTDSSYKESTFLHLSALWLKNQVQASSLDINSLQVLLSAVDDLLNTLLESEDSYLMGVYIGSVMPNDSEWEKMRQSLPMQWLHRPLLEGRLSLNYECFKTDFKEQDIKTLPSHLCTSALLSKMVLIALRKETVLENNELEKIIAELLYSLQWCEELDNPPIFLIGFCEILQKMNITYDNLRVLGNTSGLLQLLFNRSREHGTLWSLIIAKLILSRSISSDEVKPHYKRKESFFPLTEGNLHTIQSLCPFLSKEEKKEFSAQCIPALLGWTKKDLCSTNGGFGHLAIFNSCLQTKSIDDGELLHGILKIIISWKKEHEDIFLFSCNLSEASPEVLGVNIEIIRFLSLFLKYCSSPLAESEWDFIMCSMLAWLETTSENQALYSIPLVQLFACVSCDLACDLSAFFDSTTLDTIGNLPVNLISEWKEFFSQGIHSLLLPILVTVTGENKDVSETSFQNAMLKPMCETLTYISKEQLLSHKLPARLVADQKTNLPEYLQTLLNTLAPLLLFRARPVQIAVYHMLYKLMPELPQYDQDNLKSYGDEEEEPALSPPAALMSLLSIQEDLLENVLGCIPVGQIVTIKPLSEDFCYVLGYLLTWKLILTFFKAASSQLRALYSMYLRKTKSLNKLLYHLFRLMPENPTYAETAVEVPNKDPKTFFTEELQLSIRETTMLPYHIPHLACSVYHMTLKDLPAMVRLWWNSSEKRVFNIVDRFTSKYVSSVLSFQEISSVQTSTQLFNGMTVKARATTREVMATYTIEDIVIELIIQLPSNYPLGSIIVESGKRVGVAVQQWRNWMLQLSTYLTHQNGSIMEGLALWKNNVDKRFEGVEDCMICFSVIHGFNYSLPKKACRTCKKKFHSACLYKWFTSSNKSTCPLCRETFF
UniProt P36776: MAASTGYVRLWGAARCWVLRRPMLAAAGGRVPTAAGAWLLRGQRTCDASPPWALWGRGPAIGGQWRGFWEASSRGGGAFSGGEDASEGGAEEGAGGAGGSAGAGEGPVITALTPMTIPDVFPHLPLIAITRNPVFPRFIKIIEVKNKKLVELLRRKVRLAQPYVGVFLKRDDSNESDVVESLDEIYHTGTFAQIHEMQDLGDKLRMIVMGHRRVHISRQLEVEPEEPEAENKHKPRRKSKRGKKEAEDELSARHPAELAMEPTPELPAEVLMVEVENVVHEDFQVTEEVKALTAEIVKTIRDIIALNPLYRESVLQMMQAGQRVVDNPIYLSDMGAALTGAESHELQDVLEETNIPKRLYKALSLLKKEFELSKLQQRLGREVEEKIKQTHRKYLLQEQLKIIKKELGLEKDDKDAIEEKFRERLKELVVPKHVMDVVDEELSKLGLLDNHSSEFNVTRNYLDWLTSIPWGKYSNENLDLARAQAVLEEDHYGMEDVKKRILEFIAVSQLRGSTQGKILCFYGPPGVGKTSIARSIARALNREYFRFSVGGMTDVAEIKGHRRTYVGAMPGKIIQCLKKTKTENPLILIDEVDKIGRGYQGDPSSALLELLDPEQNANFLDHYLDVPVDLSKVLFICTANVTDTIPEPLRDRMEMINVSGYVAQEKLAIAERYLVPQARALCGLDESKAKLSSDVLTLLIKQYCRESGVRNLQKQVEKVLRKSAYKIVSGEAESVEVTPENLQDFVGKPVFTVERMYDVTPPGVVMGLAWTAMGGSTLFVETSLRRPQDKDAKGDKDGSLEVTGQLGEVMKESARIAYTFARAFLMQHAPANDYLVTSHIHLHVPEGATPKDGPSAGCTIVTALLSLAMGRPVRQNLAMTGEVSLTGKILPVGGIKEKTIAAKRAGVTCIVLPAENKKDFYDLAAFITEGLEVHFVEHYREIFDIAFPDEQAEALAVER
UniProt Q12907: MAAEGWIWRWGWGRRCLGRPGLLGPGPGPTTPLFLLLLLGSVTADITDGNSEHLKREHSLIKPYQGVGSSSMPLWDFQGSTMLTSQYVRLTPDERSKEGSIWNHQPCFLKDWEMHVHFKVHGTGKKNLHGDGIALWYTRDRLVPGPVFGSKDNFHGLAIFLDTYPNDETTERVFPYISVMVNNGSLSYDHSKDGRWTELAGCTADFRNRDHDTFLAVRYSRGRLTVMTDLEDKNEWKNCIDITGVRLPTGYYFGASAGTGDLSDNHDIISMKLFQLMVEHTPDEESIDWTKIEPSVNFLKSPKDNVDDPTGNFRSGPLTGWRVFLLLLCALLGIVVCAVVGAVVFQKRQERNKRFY
UniProt P18858, whole entry, looked up: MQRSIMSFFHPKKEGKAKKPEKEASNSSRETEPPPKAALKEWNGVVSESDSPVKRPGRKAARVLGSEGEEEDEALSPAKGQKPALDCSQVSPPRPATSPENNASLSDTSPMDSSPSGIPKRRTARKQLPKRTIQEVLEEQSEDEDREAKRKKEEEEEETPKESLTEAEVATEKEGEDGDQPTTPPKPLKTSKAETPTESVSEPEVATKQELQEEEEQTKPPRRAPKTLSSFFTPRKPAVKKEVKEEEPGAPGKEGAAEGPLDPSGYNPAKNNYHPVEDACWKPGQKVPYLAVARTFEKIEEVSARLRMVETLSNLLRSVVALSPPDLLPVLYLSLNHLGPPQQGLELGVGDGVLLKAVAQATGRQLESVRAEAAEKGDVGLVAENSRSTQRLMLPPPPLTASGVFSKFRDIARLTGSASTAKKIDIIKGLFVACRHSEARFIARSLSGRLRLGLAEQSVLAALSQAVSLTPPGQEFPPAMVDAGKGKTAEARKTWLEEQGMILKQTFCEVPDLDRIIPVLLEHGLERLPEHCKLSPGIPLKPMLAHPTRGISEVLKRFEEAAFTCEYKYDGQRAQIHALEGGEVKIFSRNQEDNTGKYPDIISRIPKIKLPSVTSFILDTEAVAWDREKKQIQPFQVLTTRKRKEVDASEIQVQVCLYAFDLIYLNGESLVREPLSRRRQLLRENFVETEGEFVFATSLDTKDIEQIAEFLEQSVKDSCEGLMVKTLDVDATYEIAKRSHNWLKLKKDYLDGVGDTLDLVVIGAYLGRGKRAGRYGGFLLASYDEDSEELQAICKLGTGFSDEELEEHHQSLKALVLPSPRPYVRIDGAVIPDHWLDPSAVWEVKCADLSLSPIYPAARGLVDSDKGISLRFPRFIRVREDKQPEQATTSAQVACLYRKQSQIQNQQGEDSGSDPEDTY
UniProt P48059, whole entry, looked up: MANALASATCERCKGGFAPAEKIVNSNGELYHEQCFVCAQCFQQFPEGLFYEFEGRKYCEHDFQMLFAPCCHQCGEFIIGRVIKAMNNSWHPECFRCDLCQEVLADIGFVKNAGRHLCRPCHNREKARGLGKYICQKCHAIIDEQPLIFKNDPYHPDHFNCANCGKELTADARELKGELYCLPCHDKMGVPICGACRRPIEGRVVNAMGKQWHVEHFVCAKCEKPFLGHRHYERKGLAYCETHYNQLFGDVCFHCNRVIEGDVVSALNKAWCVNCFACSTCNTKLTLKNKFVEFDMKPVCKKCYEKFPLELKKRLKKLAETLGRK
UniProt P49916: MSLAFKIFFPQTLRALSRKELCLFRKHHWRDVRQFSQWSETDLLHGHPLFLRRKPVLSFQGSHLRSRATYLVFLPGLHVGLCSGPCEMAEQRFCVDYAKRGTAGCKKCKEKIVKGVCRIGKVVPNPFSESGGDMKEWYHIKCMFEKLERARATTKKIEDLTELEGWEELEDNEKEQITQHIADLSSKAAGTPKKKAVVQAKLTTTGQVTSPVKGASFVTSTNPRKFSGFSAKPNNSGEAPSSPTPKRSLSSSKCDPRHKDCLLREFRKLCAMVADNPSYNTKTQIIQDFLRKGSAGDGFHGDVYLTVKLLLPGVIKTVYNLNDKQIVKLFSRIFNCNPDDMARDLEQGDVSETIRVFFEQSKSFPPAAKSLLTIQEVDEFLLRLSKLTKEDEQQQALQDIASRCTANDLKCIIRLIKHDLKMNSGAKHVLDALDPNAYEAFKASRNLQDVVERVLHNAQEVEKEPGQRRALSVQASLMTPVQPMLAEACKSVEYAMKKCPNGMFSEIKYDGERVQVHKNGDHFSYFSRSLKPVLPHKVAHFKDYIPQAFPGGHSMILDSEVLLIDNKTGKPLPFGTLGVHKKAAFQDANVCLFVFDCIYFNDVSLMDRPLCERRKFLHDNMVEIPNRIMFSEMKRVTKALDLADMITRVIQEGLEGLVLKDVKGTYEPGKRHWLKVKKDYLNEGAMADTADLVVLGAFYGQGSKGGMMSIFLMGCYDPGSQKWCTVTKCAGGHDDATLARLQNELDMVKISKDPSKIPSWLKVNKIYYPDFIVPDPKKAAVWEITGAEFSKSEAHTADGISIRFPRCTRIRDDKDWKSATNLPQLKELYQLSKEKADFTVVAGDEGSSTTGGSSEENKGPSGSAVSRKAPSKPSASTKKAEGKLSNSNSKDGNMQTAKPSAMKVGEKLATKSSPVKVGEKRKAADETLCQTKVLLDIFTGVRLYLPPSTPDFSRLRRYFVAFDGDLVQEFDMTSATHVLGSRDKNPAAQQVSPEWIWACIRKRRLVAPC
UniProt P09382, whole entry, looked up: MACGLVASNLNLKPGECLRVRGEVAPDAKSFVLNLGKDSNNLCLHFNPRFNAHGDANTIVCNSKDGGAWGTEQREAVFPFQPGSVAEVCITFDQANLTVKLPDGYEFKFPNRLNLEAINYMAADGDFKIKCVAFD
UniProt P38571: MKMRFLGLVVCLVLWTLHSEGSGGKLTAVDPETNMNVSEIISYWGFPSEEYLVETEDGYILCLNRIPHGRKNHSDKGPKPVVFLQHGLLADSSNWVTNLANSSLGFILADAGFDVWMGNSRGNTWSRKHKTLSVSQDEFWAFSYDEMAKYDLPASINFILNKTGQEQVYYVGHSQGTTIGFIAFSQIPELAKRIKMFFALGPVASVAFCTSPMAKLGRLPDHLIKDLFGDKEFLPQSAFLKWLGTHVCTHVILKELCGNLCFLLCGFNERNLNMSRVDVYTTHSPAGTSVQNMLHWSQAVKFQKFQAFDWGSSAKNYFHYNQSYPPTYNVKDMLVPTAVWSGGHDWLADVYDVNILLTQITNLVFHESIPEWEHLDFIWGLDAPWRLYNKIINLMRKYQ
UniProt Q5TKA1: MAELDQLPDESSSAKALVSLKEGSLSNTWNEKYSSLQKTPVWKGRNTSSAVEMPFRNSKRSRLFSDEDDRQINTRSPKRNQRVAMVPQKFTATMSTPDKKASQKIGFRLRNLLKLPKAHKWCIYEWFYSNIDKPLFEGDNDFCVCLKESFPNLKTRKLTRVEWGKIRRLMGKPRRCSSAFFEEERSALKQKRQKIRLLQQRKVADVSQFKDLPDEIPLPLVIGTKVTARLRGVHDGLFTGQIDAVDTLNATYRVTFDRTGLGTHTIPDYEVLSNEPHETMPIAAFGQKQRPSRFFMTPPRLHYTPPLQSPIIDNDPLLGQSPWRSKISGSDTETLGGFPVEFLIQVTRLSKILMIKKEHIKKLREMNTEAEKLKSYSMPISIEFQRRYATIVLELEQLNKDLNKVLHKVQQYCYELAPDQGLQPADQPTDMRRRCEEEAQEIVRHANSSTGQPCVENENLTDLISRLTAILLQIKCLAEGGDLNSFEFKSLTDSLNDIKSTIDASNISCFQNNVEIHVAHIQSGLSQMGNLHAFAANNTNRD

Compound: Cc1cc(ccc1-c1ccccc1)C(=O)N1CCCN(CC1)C(=O)CCl [compound 10]
Assay: probe-labelled cysteine peptide fold change vs DMSO (competition) (log2 fold change); higher = less target engagement (more negative = stronger competition)
Conditions: THP-1, incubation time: 4 h
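Further: competitive profiling in live THP-1 cells: cysteine peptides tagged with an iodoacetamide desthiobiotin (IA-DTB) probe, intensity after compound treatment relative to DMSO-treated cells.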

Target	probe-labelled cysteine peptide fold change (10 µM)	probe-labelled cysteine peptide fold change (50 µM)
LTN1_O94822_237_LLCLLPDNELDSLEEK (UniProt O94822)	0.119	0.118
LONP1_P36776_520_ILCFYGPPGVGK (UniProt P36776)	0.133	0.17
LMAN2_Q12907_239_NCIDITGVR (UniProt Q12907)	0.112	0.322
LIMA1_Q9UHB6_164_MENCLGESR (UniProt Q9UHB6)	-0.173	0.0626
LPP_Q93052_502_AYHPHCFTCVMCHR (UniProt Q93052)	-0.0768	0.18
LIMD1_Q9UGP4_305_TPSVSAPLALSCPR (UniProt Q9UGP4)	-0.198	-0.543
LRRC47_Q8N1G4_224_TLDLSNNQLSEIPAELADCPK (UniProt Q8N1G4)	0.00243	0.024
LEO1_Q8WVC0_530_ILPMAGRDPECQR (UniProt Q8WVC0)	-0.112	-0.254
LIG1_P18858_508_QTFCEVPDLDR (UniProt P18858)	-0.0499	-0.0138
LRPPRC_P42704_130_SCGSLLPELK (UniProt P42704)	0.114	0.459
LTN1_O94822_869_THLPDFLICK (UniProt O94822)	0.0989	0.0937
LIMS1_P48059_193_MGVPICGACR (UniProt P48059)	-0.104	-0.269
LMAN1_P49257_230_NDYEFCAK (UniProt P49257)	0.239	0.703
LIG3_P49916_499_KCPNGMFSEIKYDGER (UniProt P49916)	0.318	0.638
LMAN2L_Q9H0V9_200_DGRPTELGGCTAIVR (UniProt Q9H0V9)	-0.386	0.156
LIG1_P18858_280_NNYHPVEDACWKPGQK (UniProt P18858)	-0.214	-0.0348
LGALS1_P09382_3_ACGLVASNLNLKPGECLR (UniProt P09382)	-0.0881	-0.371
LRRC14_Q15048_71_ELVHTWPFPLLSFQQLLQECAHCSR (UniProt Q15048)	0.0373	-0.0707
LIG3_P49916_499_CPNGMFSEIKYDGER (UniProt P49916)	0.39	0.664
LIMK1_P53667_466_DLNSHNCLVR (UniProt P53667)	0.00616	-0.134

Some values from the entries so far:
LMAN2_Q12907_239_NCIDITGVR (UniProt Q12907) | probe-labelled cysteine peptide fold change (10 µM): 0.112
LIG3_P49916_499_KCPNGMFSEIKYDGER (UniProt P49916) | probe-labelled cysteine peptide fold change (50 µM): 0.638

Later entries

Target	probe-labelled cysteine peptide fold change (10 µM)	probe-labelled cysteine peptide fold change (50 µM)
LIPA_P38571_209_MFFALGPVASVAFCTSPMAK (UniProt P38571)	-0.183	0.199
LPIN3_Q9BQK8_443_SLRDPNPEHEPEPTLDTVDTIALSLCGGLADSR (UniProt Q9BQK8)	-0.112	0.0613
LGALS1_P09382_17_ACGLVASNLNLKPGECLR (UniProt P09382)	0.184	0.0681
LRCH1_Q9Y2L9_292_YLSIQACQIK (UniProt Q9Y2L9)	0.0321	-0.225
LILRA2_Q8N149_49_CQGSLQAEEYHLYR (UniProt Q8N149)	-0.146	0.115
LONP1_P36776_909_RAGVTCIVLPAENK (UniProt P36776)	0.341	0.602
LMNB1_P20700_198_CQSLTEDLEFRK (UniProt P20700)	0.0621	0.0749
LMAN2_Q12907_107_EGSIWNHQPCFLK (UniProt Q12907)	-0.057	0.076
LTN1_O94822_999_TLPSHLCTSALLSK (UniProt O94822)	0.0936	0.106
LRCH3_Q96II8_102_LSEIPIEACHFVSLENLNLYQNCIR (UniProt Q96II8)	0.126	0.0178
LRRC59_Q96AG4_59_LTTLPSDFCGLTHLVK (UniProt Q96AG4)	0.0847	0.0224
LGALS1_P09382_43_DSNNLCLHFNPR (UniProt P09382)	0.0679	0.0272
LGALS1_P09382_17_PGECLR (UniProt P09382)	0.368	0.795
LRWD1_Q9UFC0_281_LEPLHFLQCHSK (UniProt Q9UFC0)	-0.0836	-0.0432
LSS_P48449_471_CPHVTEHIPR (UniProt P48449)	-0.184	-0.209
LIMS1_P48059_219_QWHVEHFVCAK (UniProt P48059)	0.0969	-0.163
LIN9_Q5TKA1_176_CSSAFFEEER (UniProt Q5TKA1)	-0.18	-0.143
LRRC40_Q9H9A6_264_FLPEFPSCSLLK (UniProt Q9H9A6)	-0.145	-0.0617
LTN1_O94822_91_AMQEFGTMCTER (UniProt O94822)	-0.0373	0.133
LRRFIP1_Q32MZ4_726+742_CTLPEHESPSQDISDACEAESTER (UniProt Q32MZ4)	-0.403	-0.296
